# Earlier results, collected in patent US4069016A, “Assay for bilirubin” (priority 1977, dated 1978).
# At least one structure is not confirmed: it was looked up by name or label, or the drawing left a doubt.
# Molecular target: Human Serum Albumin
# Conditions: pH 7.4, 37° C; cited from earlier work
compound,measurement,value
"CC(=O)Oc1ccccc1C(=O)O [Acetylsalicylate, reference compound]",Binding Constant of primary or high affinity site(s) KA,530 M⁻¹
